# Results: PubChem BioAssay AID540256 (National Center for Advancing Translational Sciences (NCATS), 2011)
# About 3,700 (1.2%) of roughly 300,000 compounds were called active. Inconclusive means that the source gave no clear call. Such entries were picked first, then a sample of the others. The call rests on the fitted dose curve; tested in HEK293 cells. Where the call is inconclusive, the potency comes from a doubtful curve fit.
# Experiment: qHTS for Inhibitors of binding or entry into cells for Lassa Virus; further: nearly all actives have a fitted effect of over 50% in size
# Conditions: Lassa virus pseudotype entry inhibition, cell reporter; series mostly up to 37.9 µM
# Potency means the concentration at half of the fitted maximal effect.
row,Structure (SMILES),Potency
1,O=C(Nn1c(SCc2cccc([N+](=O)[O-])c2)nc2ccccc2c1=O)c1ccccc1,"inconclusive: 18.4 µM [inhibitor, single point]"
2,CC(=O)COc1cc2c(-c3cc4ccccc4o3)cc(=O)oc2cc1C,"inconclusive: 17.8 µM [inhibitor, single point]"
3,CCOC(=O)c1cc2c(cn1)[nH]c1ccccc12,inactive
4,Cc1ccccc1C(=O)Oc1cccc(Nc2ncnc3ccccc23)c1,active: 10 µM
5,COC(=O)Cc1c(C)c2ccc(OCC(=O)NCc3ccc4c(c3)OCO4)cc2oc1=O,"inconclusive: 35.5 µM [inhibitor, single point]"
6,O=C(CSc1nc2ccccc2nc1Cc1ccc(Cl)cc1)Nc1ccc2c(c1)OCO2,inactive
7,O=C(COC(=O)/C=C/c1cccc(F)c1)NNC(=O)c1ccccc1,"inconclusive: 35.5 µM [activator, single point]"
8,O=C(c1ccccc1)c1ccc(N2CCCC2)cc1,inactive
9,COCc1cc2cc3c(cc2c2c(C(=O)OC)c(C(=O)OC)c(C(=O)OC(C)(C)C)n12)OCO3,"inconclusive: 0.0042 µM [inhibitor, full curve, poor fit]"
10,O=C(COC(=O)/C=C/c1ccccc1)Nc1ccccc1Br,"inconclusive: 31.6 µM [activator, single point]"
11,O=C(COC(=O)/C=C/c1cccc([N+](=O)[O-])c1)NCCCN1CCCC1=O,"inconclusive: 0.891 µM [inhibitor, single point]"
12,CC(CCCN(C)C)C(Cc1ccccc1)c1ccccc1 (configuration not stated),"inconclusive: 35.5 µM [inhibitor, single point]"
13,CSc1cccc(NC(=O)c2cnn(-c3ccc(F)cc3)c2-n2cccc2)c1,"inconclusive: 8.91 µM [inhibitor, partial curve, poor fit]"
14,COc1ccc(C2NC(=O)c3sc(=S)n(-c4ccccc4)c3N2)cc1 (configuration not stated),inactive
15,O=C(CN(Cc1ccc(F)cc1)S(=O)(=O)c1ccc(S(=O)(=O)N2CCOCC2)cc1)Nc1ccccc1,"inconclusive: 3.98 µM [inhibitor, single point]"
16,COc1ccc(N(C)C(=O)c2cn(CC(C)C)c(=O)c3cc(OC)c(OC)cc23)cc1,"inconclusive: 31.6 µM [inhibitor, single point]"
17,O=C(CNC(=O)c1ccco1)OCN1C(=O)c2ccccc2C1=O,inactive
18,C=CC[C@@H]1C=C[C@H](O/N=C/[C@@H](NS(=O)(=O)c2ccc(C)cc2)[C@H](C)/C=C/CC(=O)OC)[C@@H](CO)O1,"inconclusive: 13 µM [inhibitor, partial curve, poor fit]"
19,CN1c2ccccc2C2(C)CCCC3=Cc4cc([N+](=O)[O-])cc([N+](=O)[O-])c4OC312 (configuration not stated),inactive
20,COc1ccc(N2C(=O)CC(Sc3nc(C)c4c(n3)CCCC4)C2=O)cc1 (configuration not stated),"inconclusive: 35.5 µM [inhibitor, single point]"
21,CCC(C)Nc1nc(N)c([N+](=O)[O-])c(Nc2cc(OC)ccc2OC)n1 (configuration not stated),"inconclusive: 8.91 µM [inhibitor, partial curve, poor fit]"
22,Cc1cc(N2CCN(C)CC2)nc2ccc(NC(=S)NCc3cccs3)cc12,"inconclusive: 20 µM [inhibitor, partial curve, poor fit]"
23,COc1ccc(C2Nc3ccccc3C(=O)N2c2ccc(C)cc2)cc1COc1ccccn1 (configuration not stated),"inconclusive: 20 µM [inhibitor, single point]"

# Structural class, the compounds so far with fluorine (3)
row,Structure (SMILES),Potency
7,O=C(COC(=O)/C=C/c1cccc(F)c1)NNC(=O)c1ccccc1,"inconclusive: 35.5 µM [activator, single point]"
13,CSc1cccc(NC(=O)c2cnn(-c3ccc(F)cc3)c2-n2cccc2)c1,"inconclusive: 8.91 µM [inhibitor, partial curve, poor fit]"
15,O=C(CN(Cc1ccc(F)cc1)S(=O)(=O)c1ccc(S(=O)(=O)N2CCOCC2)cc1)Nc1ccccc1,"inconclusive: 3.98 µM [inhibitor, single point]"

# (next part)

row,Structure (SMILES),Potency
1,O=C(c1ccc2c(c1)N(Cc1ccccc1)C(=O)c1ccccc1S2)N1CCCC1,"inconclusive: 35.5 µM [inhibitor, single point]"
2,COc1cc(Nc2ccc(C)cc2)c([N+](=O)[O-])nc1[N+](=O)[O-],"inconclusive: 4.11 µM [inhibitor, partial curve]"
3,COc1cc2nc(C3CC3)n(NC(=O)c3ccc(Cl)cc3)c(=O)c2cc1OC,"inconclusive: 9.2 µM [inhibitor, partial curve]"
4,N=c1c2c(n(Cc3ccccc3)c3c1CCC3)CCC2,active: 1.58 µM
5,COc1ccc(C2Nc3ccccc3C(=O)N2Cc2ccco2)cc1COc1ccc(F)cc1 (configuration not stated),"inconclusive: 20 µM [inhibitor, single point]"
6,CC(CCc1ccccc1)NC(=O)c1ccc(NC(=O)c2ccccc2)cc1 (configuration not stated),"inconclusive: 10 µM [inhibitor, partial curve]"
7,CCOC(=O)C1=C(N)Oc2cc(C)n(CCc3ccc(OC)c(OC)c3)c(=O)c2C1c1cccnc1 (configuration not stated),"inconclusive: 3.16 µM [inhibitor, single point]"
8,NS(=O)(=O)c1ccc(NS(=O)(=O)c2ccc(C3CNC(=O)C3)cc2)cc1 (configuration not stated),inactive
9,O=C(/C=C/c1ccc2c(c1)OCO2)c1ccc(O)cc1O,"inconclusive: 1.78 µM [inhibitor, partial curve, poor fit]"
10,CCSc1nn(CC(=O)Nc2cccc(CC)c2)c(N)c1S(=O)(=O)c1ccccc1,"inconclusive: 35.5 µM [inhibitor, single point]"
11,O=C(COC(=O)Cc1cn2ccsc2n1)NCc1ccc2c(c1)OCO2,inactive
12,Cc1ccc(NC(=S)N(CCN(C)C)C(C)c2ccco2)cc1C (configuration not stated),"inconclusive: 4.47 µM [inhibitor, single point]"
13,CCOC(=O)Cn1nc(C)c(-c2ccccc2)c1N,inactive
14,CC(C)(C)OC(=O)N1CCC(c2c(C(=O)NCc3ccccc3)cnn2-c2cccc(F)c2)CC1,inactive
15,c1ccc(Nc2nc(-c3cccnc3)cs2)nc1,"inconclusive: 0.891 µM [activator, single point]"
16,CCn1cc(C(=O)NCC(C)C)c(=O)c2cc(F)c(N3CCN(C(=O)c4ccco4)CC3)cc21,"inconclusive: 14.1 µM [activator, single point]"
17,CCOC(=O)c1cnc2cc(C(F)(F)F)ccc2c1Nc1cc(C)ccc1OC,inactive
18,COc1ccc2oc(C(=O)NCCC(C)C)c(C)c2c1,"inconclusive: 14.1 µM [inhibitor, single point]"
19,Cc1ccc(N=Cc2c(C)[nH]n(-c3nc4ccccc4[nH]3)c2=O)cc1,"inconclusive: 4.11 µM [inhibitor, single point]"
20,COC(=O)[C@@]1(Cc2ccc(F)cc2)[C@H]2c3cc(C(=O)N(C)C)n(Cc4nc5ccccc5[nH]4)c3C[C@H]2CN1C(=O)c1ccccc1,"inconclusive: 18.4 µM [inhibitor, single point]"
21,CCC(C(=O)Nc1cccc(Cl)c1C)n1nc(C)c2sc3ccccc3c2c1=O (configuration not stated),inactive
22,CC(Sc1nc(N)cc(=O)[nH]1)C(=O)Nc1sc2c(c1C#N)CCCC2 (configuration not stated),"inconclusive: 35.5 µM [inhibitor, single point]"
23,O=C(O)COCC(=O)N1CCCN(c2ccc(C(F)(F)F)cn2)CC1,inactive

row,Structure (SMILES),Potency
1,CC(=O)N1CCc2cc(Br)cc(S(=O)(=O)CCC(=O)N3CCN(c4ccc(F)cc4)CC3)c21,inactive
2,CCC(C)n1c(SCC(=O)/C(C#N)=C(\C)N)nc2ccccc2c1=O (configuration not stated),"inconclusive: 18.4 µM [inhibitor, partial curve, poor fit]"
3,CC(C)c1nc(N2CCCC2)c(C#N)c2c1CCCC2,"inconclusive: 7.3 µM [inhibitor, single point]"
4,COc1ccc(/C=N/Nc2cc(C)nc(-n3nc(C)cc3C)n2)cc1,"inconclusive: 10 µM [inhibitor, partial curve]"
5,COCCn1c(=S)[nH]c2sc3c(c2c1=O)CCCC3,inactive
6,C=CCc1cc(C=O)cc(OC)c1OCc1ccc(Cl)cc1,inactive
7,Cc1c(C(=O)N(Cc2ccccc2F)C2CCS(=O)(=O)C2)oc2ccccc12 (configuration not stated),inactive
8,CCOC(=O)Cn1c(-c2ccc(Cl)nc2)nc2ccccc21,inactive
9,c1ccc(-c2noc(-c3ccc4c(c3)OCO4)n2)cc1,"inconclusive: 8.91 µM [inhibitor, single point]"
10,O=C(NCCc1ccccc1)c1cnn2c(C(F)F)cc(C3CC3)nc12,"inconclusive: 12.6 µM [inhibitor, partial curve, poor fit]"
11,Cc1ccc(NC(=O)CS(=O)CC(=O)N2CCN(c3ccccc3)CC2)cc1 (configuration not stated),"inconclusive: 3.16 µM [inhibitor, partial curve, poor fit]"
12,CCO/C=C/C(O)(CNC(=O)c1ccc(C(C)(C)C)cc1)C(F)(F)F (configuration not stated),"inconclusive: 18.4 µM [inhibitor, partial curve, poor fit]"
13,O=C(O)CCC(=O)Nc1ccc(Br)cc1C(=O)c1ccccc1Cl,inactive
14,O=C(COc1ccc2c(c1)OCO2)Nc1nccs1,"inconclusive: 6.31 µM [inhibitor, full curve, poor fit]"
15,COc1ccc(-c2noc(CN(C(=O)c3ccc(OC(C)=O)cc3)C(C)C)n2)cc1OC,"inconclusive: 17.8 µM [inhibitor, partial curve, poor fit]"
16,O=C(CSc1nnc(-c2ccccc2Cl)o1)N1CCCc2ccccc21,inactive
17,Cc1ccc2nc(/C(C#N)=C\c3ccc(OC(=O)c4cccs4)cc3)[nH]c2c1,"inconclusive: 32.6 µM [inhibitor, single point]"
18,Cc1sc2nc(CSCC(=O)Nc3ccc(Cl)cc3F)[nH]c(=O)c2c1C,inactive
19,O=C(CC12CC3CC(CC(C3)C1)C2)Nc1ccccc1N1CCOCC1,"inconclusive: 2.82 µM [inhibitor, full curve, poor fit]"
20,COc1ccc(S(=O)(=O)N2CCOC2CNC(=O)C(=O)NCCc2c[nH]c3ccccc23)cc1 (configuration not stated),"inconclusive: 13 µM [inhibitor, partial curve]"
21,CC(C)Oc1cccc(C(=O)C2CCCN(C(=O)c3cc(C(F)(F)F)[nH]n3)C2)c1 (configuration not stated),active: 12.6 µM
